From publication PMC10657630

Chains of the proteins cited; added tags and fusions are not shown. Lines headed by an entry give the natural chain unless they say otherwise; changes in a name come on top. Residues count along the entry.
UniProt P61961: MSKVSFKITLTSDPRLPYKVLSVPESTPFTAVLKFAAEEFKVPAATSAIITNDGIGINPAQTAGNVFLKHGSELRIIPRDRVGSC
UniProt Q8JZQ2, residues 67-802: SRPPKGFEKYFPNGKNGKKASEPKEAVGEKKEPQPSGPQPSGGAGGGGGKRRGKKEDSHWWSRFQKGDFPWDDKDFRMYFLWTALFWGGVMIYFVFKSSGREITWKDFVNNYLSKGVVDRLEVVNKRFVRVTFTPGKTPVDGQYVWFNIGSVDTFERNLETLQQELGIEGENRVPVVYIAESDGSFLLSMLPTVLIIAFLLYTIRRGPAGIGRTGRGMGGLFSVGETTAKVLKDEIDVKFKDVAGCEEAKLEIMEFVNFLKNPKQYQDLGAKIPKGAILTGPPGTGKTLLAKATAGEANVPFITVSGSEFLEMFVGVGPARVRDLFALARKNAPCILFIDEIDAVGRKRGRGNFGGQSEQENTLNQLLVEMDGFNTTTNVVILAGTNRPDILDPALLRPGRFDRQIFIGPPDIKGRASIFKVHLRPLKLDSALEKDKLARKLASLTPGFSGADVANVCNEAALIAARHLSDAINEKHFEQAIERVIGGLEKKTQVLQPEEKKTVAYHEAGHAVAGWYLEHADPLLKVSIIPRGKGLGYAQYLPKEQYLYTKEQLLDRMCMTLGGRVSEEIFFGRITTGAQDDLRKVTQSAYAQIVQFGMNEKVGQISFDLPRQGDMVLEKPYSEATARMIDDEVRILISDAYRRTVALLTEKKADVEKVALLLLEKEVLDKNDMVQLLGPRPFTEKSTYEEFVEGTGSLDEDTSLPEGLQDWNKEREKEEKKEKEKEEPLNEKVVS
UniProt O54950: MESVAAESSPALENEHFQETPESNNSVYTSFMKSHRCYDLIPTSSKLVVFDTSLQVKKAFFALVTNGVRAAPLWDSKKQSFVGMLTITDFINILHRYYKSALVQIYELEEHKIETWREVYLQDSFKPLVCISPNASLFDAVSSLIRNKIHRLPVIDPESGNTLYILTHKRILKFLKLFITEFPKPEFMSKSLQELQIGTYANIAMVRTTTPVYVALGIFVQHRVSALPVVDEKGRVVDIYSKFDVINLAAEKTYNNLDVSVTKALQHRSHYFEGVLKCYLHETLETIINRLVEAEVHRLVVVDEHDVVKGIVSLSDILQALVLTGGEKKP
UniProt P06909, residues 19-1234: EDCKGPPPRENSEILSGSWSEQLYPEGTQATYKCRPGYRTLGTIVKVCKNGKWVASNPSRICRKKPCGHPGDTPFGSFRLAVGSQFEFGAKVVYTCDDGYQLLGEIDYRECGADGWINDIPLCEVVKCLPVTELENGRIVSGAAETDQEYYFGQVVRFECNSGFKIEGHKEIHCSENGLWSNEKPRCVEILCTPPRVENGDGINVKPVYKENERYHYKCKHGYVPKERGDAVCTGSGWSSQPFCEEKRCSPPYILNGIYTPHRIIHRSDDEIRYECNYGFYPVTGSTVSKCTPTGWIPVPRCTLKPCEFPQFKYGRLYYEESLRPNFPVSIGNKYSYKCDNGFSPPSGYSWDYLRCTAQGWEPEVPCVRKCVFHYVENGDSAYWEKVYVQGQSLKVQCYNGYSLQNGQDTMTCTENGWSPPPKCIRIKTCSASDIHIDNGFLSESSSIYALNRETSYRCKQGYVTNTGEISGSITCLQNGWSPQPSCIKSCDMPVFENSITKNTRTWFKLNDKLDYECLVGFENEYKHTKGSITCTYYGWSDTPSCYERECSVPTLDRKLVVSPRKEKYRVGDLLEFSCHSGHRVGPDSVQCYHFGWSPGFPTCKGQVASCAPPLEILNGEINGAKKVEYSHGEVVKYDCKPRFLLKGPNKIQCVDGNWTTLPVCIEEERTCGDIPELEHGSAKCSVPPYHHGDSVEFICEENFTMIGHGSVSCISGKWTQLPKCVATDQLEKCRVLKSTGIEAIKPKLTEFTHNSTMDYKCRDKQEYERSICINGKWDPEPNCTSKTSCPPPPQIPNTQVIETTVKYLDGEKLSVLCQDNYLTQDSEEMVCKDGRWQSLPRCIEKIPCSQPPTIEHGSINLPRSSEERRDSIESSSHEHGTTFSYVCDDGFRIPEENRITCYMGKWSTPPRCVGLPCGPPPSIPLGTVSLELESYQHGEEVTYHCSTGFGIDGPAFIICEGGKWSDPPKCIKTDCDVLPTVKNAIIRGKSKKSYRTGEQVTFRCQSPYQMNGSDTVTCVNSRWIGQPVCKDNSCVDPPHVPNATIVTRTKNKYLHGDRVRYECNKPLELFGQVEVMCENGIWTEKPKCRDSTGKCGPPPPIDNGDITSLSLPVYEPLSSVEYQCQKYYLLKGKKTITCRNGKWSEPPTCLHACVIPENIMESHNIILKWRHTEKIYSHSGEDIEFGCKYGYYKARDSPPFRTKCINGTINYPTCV
UniProt Q9JMC3: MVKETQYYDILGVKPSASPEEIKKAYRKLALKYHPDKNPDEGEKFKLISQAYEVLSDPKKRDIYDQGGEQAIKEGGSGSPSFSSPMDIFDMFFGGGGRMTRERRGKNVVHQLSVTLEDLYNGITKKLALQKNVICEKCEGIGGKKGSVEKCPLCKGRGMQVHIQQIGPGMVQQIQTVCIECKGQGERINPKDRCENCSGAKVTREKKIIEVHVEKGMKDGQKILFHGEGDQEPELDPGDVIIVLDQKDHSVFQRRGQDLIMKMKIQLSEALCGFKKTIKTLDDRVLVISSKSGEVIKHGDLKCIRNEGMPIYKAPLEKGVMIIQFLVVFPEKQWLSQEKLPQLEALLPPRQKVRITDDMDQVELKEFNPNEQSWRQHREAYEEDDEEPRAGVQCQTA
UniProt O35678: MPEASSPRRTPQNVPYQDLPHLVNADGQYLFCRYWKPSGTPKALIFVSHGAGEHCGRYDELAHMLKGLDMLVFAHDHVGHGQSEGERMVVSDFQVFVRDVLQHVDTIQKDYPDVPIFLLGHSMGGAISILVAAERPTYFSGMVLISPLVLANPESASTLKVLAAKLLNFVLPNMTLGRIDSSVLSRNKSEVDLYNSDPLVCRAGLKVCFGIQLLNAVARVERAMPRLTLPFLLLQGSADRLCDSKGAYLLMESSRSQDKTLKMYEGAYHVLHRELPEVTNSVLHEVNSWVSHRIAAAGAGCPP

Target: Flag-6×His-tagged Ufm1ΔSC (UniProt P61961)
Assay: affinity purification with mass spectrometry; heart tissue of Tg-Ufm1 mice (NTg mice as control) lysed in NP-40 lysis buffer; lysates with Dynabeads His-Tag Isolation and Pulldown at 4 °C for 30 min, washed five times, eluted with 300 mM imidazole; LC-MS/MS; proteins of the control filtered out, unique peptide number ≥ 2

Row | binding | Molecule
1 | binds | Afg312 (from UniProt Q8JZQ2 67-802)
2 | binds | Hk1 (from UniProt P17710-3)
3 | binds | Prkag1 (from UniProt O54950 1-330)
4 | binds | Cfh (from UniProt P06909 19-1234)
5 | binds | Dnaja4 (from UniProt Q9JMC3 1-397)
6 | binds | Mgll (from UniProt O35678 1-303)
7 | binds | Mrpl37 (protein, UniProt Q921S7 30-423) AYEWGVRSTRKPEPRPLDRVYEIPGLEPITYEGKKHFVPWLARPIFPPWERGWNDPRFHRAAPIHEQTLYKEEPCYIFHQRCRLLEGMKQALWLTKTKLIEGLPKKVLSLVDDPANHIENQEQRVLDIISHARLWHSTEDIPKRETYCPLIVDSLIQLCKSQILKHPSLARRTSAQNCTLATTWNRESLLLQVRGTSSTILSAKDPLPVIASREEVEATRSHVLETFYPISPTIDLQECHVYEVKDDTGFQEGYPYPHPHTLYFLEKANLRPQRFLPEQLRAKMLLFAFANALAQARLLYGNTAKVLEQPIVVQSVGTDGRVFQFLVLQLNTTDLASSEGVKNLVWTDSDQLLYRHFWCRPVIKKKVVVEPVGPVDFQPETFRKFLALYLHGVV
8 | binds | mtATP8 (protein, UniProt P03930 1-67) MPQLDTSTWFITIISSMITLFILFQLKVSSQTFPLAPSPKSLTTMKVKTPWELKWTKIYLPHSLPQQ
9 | binds | Fgb (protein, UniProt Q8K0E8 20-481) ADDDYDEPTDSLDARGHRPVDRRKEEPPSLRPAPPPISGGGYRARPAKATANQKKVERRPPDAGGCLHADTDMGVLCPTGCTLQQTLLNQERPIKSSIAELNNNIQSVSDTSSVTFQYLTLLKDMWKKKQAQVKENENVINEYSSILEDQRLYIDETVNDNIPLNLRVLRSILEDLRSKIQKLESDISAQMEYCRTPCTVSCNIPVVSGKECEEIIRKGGETSEMYLIQPDTSIKPYRVYCDMKTENGGWTVIQNRQDGSVDFGRKWDPYKKGFGNIATNEDAKKYCGLPGEYWLGNDKISQLTRMGPTELLIEMEDWKGDKVKAHYGGFTVQNEASKYQVSVNKYKGTAGNALMDGASQLVGENRTMTIHNGMFFSTYDRDNDGWVTTDPRKQCSKEDGGGWWYNRCHAANPNGRYYWGGLYSWDMSKHGTDDGVVWMNWKGSWYSMRRMSMKIRPFFPQQ
10 | binds | Tha1 (protein, UniProt Q6XPS7 1-400) MLCSLFRAAMLRSLFRATVPGLRVPWAQWSRNWAGVPAHVVDLRSDTVTRPGPAMRRAMAEAVVGDDDYGEDPTVHELQEKAAELLGVERTLFVPTNTMANLISVMGHCRRRGSQVLLGQECHLHVYEQGGVAQIAGVHSHPLPDLPYGTLDLNELERALTRGSGSPYHPVCELVYLENTHSSAGGRVLPVDYLRQVCLLAHAHGARVHMDGARLMNAAVALRIPPARLVEHCDSVSFCFSKGLGAPVGALVGGSKDFIGEAWRLRKALGGGMRQAGVLAAAALVGLAEAEEVLPRDHENAQRFAKGLQDLASPICSVDPATVETNMVLVQVAGLPPSELCQRLQAVSAEEVAQTGRAVRVLLFPWTEQSVRAVWHRDVSAQDTELALKKWEFVLRQLRP
11 | binds | Ndufs5 (protein, UniProt Q99LY9 1-106) MPFLDIQKKLGISLDRHFMFLSAEQPYKNAARCHAFEKEWIECAHGIGGTRAKKECKIEFDDFEECLLRYKTMRRMHDIKKQREKLMKEGKYTPPPHHSGREEPRP
12 | binds | Hspb6 (protein, UniProt Q5EBG6 1-162) MEIPVPVQPSWLRRASAPLPGFSAPGRLFDQRFGEGLLEAELASLCPAAIAPYYLRAPSVALPTAQVSTDSGYFSVLLDVKHFLPEEISVKVVDDHVEVHARHEERPDEHGFIAREFHRRYRLPPGVDPAAVTSALSPEGVLSIQATPASAQAQLPSPPAAK
13 | binds | Gys1 (protein, UniProt Q9Z1E4 1-738) MPLSRSLSVSSLPGLEDWEDEFDPENAVLFEVAWEVANKVGGIYTVLQTKAKVTGDEWGDNYYLVGPYTEQGVRTQVELLEPPTPELKRTLDSMNSKGCKVYFGRWLIEGGPLVVLLDVGASAWALERWKGELWDTCNIGVPWYDREANDAVLFGFLTTWFLGEFLAQNEEKPYVVAHFHEWLAGVGLCLCRARRLPVATIFTTHATLLGRYLCAGAVDFYNNLENFNVDKEAGERQIYHRYCMERAAAHCAHVFTTVSQITAIEAQHLLKRKPDIVTPNGLNVKKFSAMHEFQNLHAQSKARIQEFVRGHFYGHLDFNLDKTLYFFIAGRYEFSNKGADVFLEALARLNYLLRVNGSEQTVVAFFIMPARTNNFNVETLKGQAVRKQLWDTANTVKEKFGRKLYESLLVGSLPDMNKMLDKEDFTMMKRAIFATQRQSFPPVCTHNMLDDSSDPILTTIRRIGLFNSSADRVKVIFHPEFLSSTSPLLPVDYEEFVRGCHLGVFPSYYEPWGYTPAECTVMGIPSISTNLSGFGCFMEEHIADPSAYGIYILDRRFRSLDDSCSQLTSFLYSFCQQSRRQRIIQRNRTERLSDLLDWKYLGRYYMSARHMALAKAFPDHFTYEPHEVDATQGYRYPRPASVPPSPSLSRHSSPHQSEDEEEPRDGPLGEDSERYDEEEEAAKDRRNIRAPEWPRRASCSSSTGGSKRSNSVDTGPSSSLSTPTEPLSPTSSLGEERN
14 | binds | Ugp2 (protein, UniProt Q91ZJ5 1-508) MSRFVQDLSKAMSQDGASQFQEVILQELELSVKKELEKILTTAASHEFEHTKKDLDGFRKLFHRFLQEKGPSVDWGKIQRPPEDSIQPYEKIKARGLPDNISSVLNKLVVVKLNGGLGTSMGCKGPKSLIGVRNENTFLDLTVQQIEHLNKTYNTDVPLVLMNSFNTDEDTKKILQKYNHCRVKIYTFNQSRYPRINKESLLPIAKDVSYSGENTEAWYPPGHGDIYASFYNSGLLDTFIEEGKEYIFVSNIDNLGATVDLYILNHLMNPPNGKRCEFVMEVTNKTRADVKGGTLTQYEGKLRLVEIAQVPKAHVDEFKSVSKFKIFNTNNLWISLGAVKRLQEQNAIDMEIIVNPKTLDGGLNVIQLETAVGAAIKSFENSLGINVPRSRFLPVKTTSDLLLVMSNLYSLNAGSLTMSEKREFPTVPLVKLGSSFTKVQDYLRRFESIPDMLELDHLTVSGDVTFGKNVSLKGTVIIIANHGDRIDIPPGAVLENKIVSGNLRILDH
15 | binds | Timm21 (protein, UniProt Q8CCM6 19-244) LGRQLLPHFVFTKACFKTQPLRWGLREQKITVQPRTVLRFTQKTFWTQGPDPRKAKEDSTKQVSIRRNQREETGVSMSQKVREAGRDVSYLIVVLFGVGLTGGLLYAIFKELFFSSSPNIIYGKALGKCRTHPEVIGVFGEPLKGYGEMSRRGRRQHVRFSEYVNNGLKRIRVKFYIEGSEPGKQGTVHAEVEENPGSGQFEFRYIFVEVTPTRSIIVEDNRSEQS

These are yes or no findings as the source states them, for the method shown. Binding seen in cells or lysates may run through a third protein. Here binding means that the protein was enriched with, or labelled near, the bait; the list need not be complete.
